From patent publication US7531576B2, “Biphenyl derivatives” (Pola Chemical Industries, Inc., priority 2000, dated 2009)
At least one structure is not confirmed: it was looked up by name or label, or the drawing left a doubt.

Target: ACAT
Assay: Evaluation of ACAT inhibitory activity (rat liver enzyme preparation, [14C]-oleoyl CoA substrate)
Type: biochemical
Settings: ACAT from liver of rats on high-cholesterol feed; 30° C.; pIC50 from concentration-response curve by the nonlinear least square method
Description: IR (cm^−1) (KBr): • 1517, 1521, 2962. Test (Evaluation of ACAT Inhibitory Activity) (1) Preparation of the Enzyme (ACAT)
(1-1) Each rat was reared for about 3 weeks on high-cholesterol feed (solid feed prepared by adding 1% of cholesterol, 0.3% of sodium cholate, 0.1% of propylthiouracil and 3% of lard to a conventional feed MF).
(1-2) The liver of the rat reared in (1-1) was collected and shredded. 10 mM HEPES buffer (pH 7.4) which contained 0.25 M of sucrose and 1 mM of EDTA was added in an amount about three times as much as the weight of the liver to suspend the latter. The liver was then homogenized by a glass-Teflon homogenizer.
(1-3) The homogenized liver was centrifuged for 15 minutes under 22000×g, and the supernatant was collected.
(1-4) The supernatant was centrifuged further for 60 minutes under 100000×g. […]
10^−3 M Solutions of the compounds to be evaluated were prepared with methanol. […]
(3-7) Subsequently, “Aquazole II” (about 10 mL) was added to the vials. After the vials were allowed to stand for a while, they were measured for [^14C] and [^3H] radioactivities.
Using the radioactivities, the % recovery of [^14C]-cholesteryl oleate formed by the enzymatic reaction was calculated from the radioactivity of [^3H], and from the radioactivity of [^14C], the yield of cholesteryl oleate was calculated. […]

## CCCCCN(Cc1ccc(-c2ccccc2-c2nnn[nH]2)cc1)S(=O)(=O)NC(=O)Nc1c(C(C)C)cccc1C(C)C [Compound of the formula (16), N-[[[[(2,6-Diisopropylphenyl)amino]carbonyl]-amino]sulfonyl]-N-pentyl-N-[2′-[(1H-tetrazol-5-yl)-1,1′-biphenyl-4-yl]methyl]amine]
  PIC50: 5.51
